Results reported in the supplement of paper PMC10849652.
This is one part of the list. Residues, ends and D or L forms follow the SMILES beside them. *: point of attachment. Cbz = O=C(OCc1ccccc1)*

The chains behind the UniProt entries cited, without tags or fusion partners. Where a name states a change or a piece, a line headed by the entry shows the natural chain unless it says otherwise.
UniProt Q15788: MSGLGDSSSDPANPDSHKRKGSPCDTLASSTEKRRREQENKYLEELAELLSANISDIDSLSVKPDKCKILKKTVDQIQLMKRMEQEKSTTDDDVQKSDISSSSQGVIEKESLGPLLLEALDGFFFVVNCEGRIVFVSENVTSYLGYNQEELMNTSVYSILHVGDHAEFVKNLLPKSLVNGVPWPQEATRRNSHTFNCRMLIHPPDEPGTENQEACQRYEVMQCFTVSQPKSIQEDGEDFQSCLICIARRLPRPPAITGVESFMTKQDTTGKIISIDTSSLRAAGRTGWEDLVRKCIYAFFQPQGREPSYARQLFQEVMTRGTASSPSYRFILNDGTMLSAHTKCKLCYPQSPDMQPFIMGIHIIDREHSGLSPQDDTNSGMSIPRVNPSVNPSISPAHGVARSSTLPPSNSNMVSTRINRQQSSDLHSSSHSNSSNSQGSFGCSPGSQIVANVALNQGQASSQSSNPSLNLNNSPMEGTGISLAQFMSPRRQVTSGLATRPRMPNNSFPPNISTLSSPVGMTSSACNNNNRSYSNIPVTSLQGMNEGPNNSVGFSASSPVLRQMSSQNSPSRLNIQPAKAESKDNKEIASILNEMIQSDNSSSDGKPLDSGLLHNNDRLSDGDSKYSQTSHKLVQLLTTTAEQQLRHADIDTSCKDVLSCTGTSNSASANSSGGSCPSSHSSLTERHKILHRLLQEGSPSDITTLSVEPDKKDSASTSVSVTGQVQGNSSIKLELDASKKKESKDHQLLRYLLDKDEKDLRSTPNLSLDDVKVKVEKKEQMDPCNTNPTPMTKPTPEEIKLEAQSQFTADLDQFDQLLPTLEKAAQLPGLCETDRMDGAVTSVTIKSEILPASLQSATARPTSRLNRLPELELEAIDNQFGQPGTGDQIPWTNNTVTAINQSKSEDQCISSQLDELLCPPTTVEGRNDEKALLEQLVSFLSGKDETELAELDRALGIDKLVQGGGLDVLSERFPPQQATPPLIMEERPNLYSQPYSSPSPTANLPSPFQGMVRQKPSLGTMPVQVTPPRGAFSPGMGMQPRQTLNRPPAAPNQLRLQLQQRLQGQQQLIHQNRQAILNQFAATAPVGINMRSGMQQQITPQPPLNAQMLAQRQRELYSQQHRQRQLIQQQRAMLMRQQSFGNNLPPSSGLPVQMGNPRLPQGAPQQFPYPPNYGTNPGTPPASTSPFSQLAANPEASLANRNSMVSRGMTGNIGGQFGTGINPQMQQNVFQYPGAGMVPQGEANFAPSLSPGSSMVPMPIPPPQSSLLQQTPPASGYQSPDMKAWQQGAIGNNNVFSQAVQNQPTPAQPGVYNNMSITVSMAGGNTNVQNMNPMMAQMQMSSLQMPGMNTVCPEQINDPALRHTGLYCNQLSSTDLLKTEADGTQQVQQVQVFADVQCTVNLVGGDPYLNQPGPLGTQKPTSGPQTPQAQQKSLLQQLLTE
UniProt O95167, whole entry, looked up: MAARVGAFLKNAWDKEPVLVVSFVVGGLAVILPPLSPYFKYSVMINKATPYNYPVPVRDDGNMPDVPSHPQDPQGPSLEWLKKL
UniProt O00483, whole entry, looked up: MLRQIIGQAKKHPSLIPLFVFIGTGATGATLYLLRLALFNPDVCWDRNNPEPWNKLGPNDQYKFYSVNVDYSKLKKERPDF
UniProt Q16795, whole entry, looked up: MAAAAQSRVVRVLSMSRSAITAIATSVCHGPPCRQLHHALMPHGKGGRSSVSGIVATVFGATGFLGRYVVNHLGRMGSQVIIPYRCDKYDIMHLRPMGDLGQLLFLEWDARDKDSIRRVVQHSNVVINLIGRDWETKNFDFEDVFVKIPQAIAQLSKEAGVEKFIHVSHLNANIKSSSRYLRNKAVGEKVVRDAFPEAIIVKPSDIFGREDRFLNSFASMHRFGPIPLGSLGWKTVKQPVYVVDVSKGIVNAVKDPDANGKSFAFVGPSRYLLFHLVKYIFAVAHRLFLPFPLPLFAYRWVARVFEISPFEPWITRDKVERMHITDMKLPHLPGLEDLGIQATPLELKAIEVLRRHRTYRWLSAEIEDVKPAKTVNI
UniProt P17568, whole entry, looked up: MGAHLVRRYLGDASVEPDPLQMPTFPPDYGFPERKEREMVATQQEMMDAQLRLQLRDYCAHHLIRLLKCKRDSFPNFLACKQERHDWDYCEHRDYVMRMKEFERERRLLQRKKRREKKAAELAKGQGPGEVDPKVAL
UniProt Q15021, whole entry, looked up: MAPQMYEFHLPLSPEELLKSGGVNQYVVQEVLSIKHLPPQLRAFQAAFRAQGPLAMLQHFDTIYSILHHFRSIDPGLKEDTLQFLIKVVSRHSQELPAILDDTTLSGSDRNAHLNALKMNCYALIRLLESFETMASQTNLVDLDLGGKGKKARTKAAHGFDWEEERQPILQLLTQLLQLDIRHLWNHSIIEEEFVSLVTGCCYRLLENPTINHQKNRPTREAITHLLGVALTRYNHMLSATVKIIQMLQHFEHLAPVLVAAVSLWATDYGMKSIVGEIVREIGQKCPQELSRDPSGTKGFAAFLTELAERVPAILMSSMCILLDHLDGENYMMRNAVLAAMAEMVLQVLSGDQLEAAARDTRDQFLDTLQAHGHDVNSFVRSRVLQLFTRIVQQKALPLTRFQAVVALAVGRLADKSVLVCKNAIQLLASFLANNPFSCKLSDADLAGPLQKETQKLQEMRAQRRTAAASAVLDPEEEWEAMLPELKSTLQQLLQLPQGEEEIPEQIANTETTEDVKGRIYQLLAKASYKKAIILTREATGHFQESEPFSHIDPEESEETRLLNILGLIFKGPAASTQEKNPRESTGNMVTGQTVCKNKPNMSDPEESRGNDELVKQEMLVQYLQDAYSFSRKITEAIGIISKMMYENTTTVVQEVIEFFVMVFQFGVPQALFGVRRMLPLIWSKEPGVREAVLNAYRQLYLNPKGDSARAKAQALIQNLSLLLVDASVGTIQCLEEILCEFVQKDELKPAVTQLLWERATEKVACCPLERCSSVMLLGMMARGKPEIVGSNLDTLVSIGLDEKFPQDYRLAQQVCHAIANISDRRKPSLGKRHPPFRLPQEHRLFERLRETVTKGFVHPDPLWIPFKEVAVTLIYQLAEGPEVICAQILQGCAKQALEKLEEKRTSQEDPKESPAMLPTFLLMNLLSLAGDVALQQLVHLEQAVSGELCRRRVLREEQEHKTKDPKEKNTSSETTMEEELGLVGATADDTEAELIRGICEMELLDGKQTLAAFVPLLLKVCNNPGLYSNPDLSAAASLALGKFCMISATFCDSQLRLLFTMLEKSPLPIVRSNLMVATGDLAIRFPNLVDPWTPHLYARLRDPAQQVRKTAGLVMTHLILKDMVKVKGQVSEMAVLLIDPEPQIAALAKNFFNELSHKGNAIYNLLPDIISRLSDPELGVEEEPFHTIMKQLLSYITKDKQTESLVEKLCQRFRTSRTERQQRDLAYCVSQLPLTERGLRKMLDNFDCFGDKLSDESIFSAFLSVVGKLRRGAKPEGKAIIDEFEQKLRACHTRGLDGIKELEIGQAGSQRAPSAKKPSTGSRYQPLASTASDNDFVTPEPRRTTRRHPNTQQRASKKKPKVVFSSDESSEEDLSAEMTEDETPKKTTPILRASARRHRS
UniProt O95182, whole entry, looked up: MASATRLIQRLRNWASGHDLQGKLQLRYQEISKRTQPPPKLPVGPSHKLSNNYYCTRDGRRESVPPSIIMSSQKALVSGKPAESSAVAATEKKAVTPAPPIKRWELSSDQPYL
UniProt Q9GZM8: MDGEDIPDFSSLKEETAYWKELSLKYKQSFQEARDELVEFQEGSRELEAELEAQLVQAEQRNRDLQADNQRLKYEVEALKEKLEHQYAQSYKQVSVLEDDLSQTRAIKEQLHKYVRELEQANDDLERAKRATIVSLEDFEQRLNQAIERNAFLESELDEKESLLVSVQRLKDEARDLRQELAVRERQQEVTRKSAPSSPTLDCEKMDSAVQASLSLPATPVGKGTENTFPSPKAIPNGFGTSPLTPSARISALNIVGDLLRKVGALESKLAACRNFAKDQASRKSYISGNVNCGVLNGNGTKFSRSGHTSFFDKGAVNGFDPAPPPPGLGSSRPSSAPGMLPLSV

Legend:
Experiment in all cases: log2 fold change, soluble protein after heating vs DMSO (PISA); higher = thermal stabilisation; K562 cells, 10 uM, 30 min; active = over 0.2 and 3.5 SD of the protein, either way, in both replicates (recomputed)
erlotinib = compound: C#Cc1cccc(Nc2ncnc3cc(OCCOC)c(OCCOC)cc23)c1 [erlotinib]
Summary of the method: (§1)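 K562 cells (2×10^6 cells/mL) were treated with 10 μM compound for 30 min, and aliquots were heated for 3 min over 48°C-58°C. Pooled aliquots were extracted in PBS with 0.5% NP-40 at 4°C, and the supernatant after 21,000xg for 90 min was measured by TMTpro 16plex LC-MS/MS with channel sums equalised. Reported thermal stability, relative to control samples and from duplicates, is a log2 fold change.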

[1] = compound: C/C(=N\NC(=O)C1=CC(=CC=C1)S(=O)(=O)N2CCOCC2)/C3=C(C=CC(=C3)Cl)O
Summary of the method: as §1

[2] = compound: C1=CC(=C(C=C1Cl)C2=NC3=NC=CN=C3C(=N2)NC4=CC=NC=C4)F
Summary of the method: as §1

[3] = compound: C1=CC(=CC=C1C2=NC3=C(N2)C=C(C=C3)C(=O)N)OC4=CC=C(C=C4)Cl
Summary of the method: as §1

[4] = compound: C1=CC2=C(C=CC(=C2)/C=C\3/C(=O)NC(=NCC4=CC=CS4)S3)N=C1
Summary of the method: as §1

[5] = compound: C1=CC2=NC=CN=C2C=C1/C=C/3\C(=O)NC(=O)S3
Summary of the method: as §1

[6] = compound: C1=CC=C(C=C1)C2=NC(=C(N2)C3=CC=NC=C3)C4=CC(=C(C=C4)Cl)O
Summary of the method: as §1

[7] = compound: C1=CC=C2C(=C1)C3=NNC4=CC=CC(=C43)C2=O
Summary of the method: as §1

[8] = compound: C1CCN(C1)C(=O)NC2=CC=CC(=C2)NC3=NC=C(C(=N3)NCCC4=CN=CN4)Br
Summary of the method: as §1

[9] = compound: C1CN(CCC1(CC2=CC=C(C=C2)Cl)N)C3=NC=NC4=C3C=CN4
Summary of the method: as §1

ibrutinib = compound: C=CC(=O)N1CCC[C@@H](n2nc(-c3ccc(Oc4ccccc4)cc3)c3c(N)ncnc32)C1 [ibrutinib]
Summary of the method: as §1

[10] = compound: CC(=O)c1cnc2ccc(-c3cc(Cl)c(O)c(Cl)c3)nc2c1N[C@H]1CC[C@H](CN(C)C)CC1
Summary of the method: as §1

ralimetinib = compound: CC(C)(C)Cn1c(N)nc2ccc(-c3[nH]c(C(C)(C)C)nc3-c3ccc(F)cc3)nc21 [ralimetinib]
Summary of the method: as §1

[11] = compound: CC(C)(O)CC(=O)NCCn1ccc2ncnc(Nc3ccc(Oc4cccc(C(F)(F)F)c4)c(Cl)c3)c21
Summary of the method: as §1

[12] = compound: CC(C)C1=C2N=C(C=C(N2N=C1)NCC3=CC=CC=C3)NCCCCCCN
Summary of the method: as §1

[13] = compound: CC(C)C[C@@H](C=O)NC(=O)[C@H](CC(C)C)NC(=O)[C@H](CC(C)C)NC(=O)OCc1ccccc1
Summary of the method: as §1

[14] = compound: CC1=C(C(CC(=O)N1)C2=CC=C(C=C2)C(F)(F)F)C(=O)NC3=C(C=C4C(=C3)C=NN4)F
Summary of the method: as §1

[15] = compound: CC1=C(C2=C(C=C1)C(=O)C3=CC=CC=C3N2CCCN)C
Summary of the method: as §1

IRAK-1-4 Inhibitor I = compound: C1COCCN1CCN2C3=CC=CC=C3N=C2NC(=O)C4=CC(=CC=C4)[N+](=O)[O-] [IRAK-1-4 Inhibitor I]
Summary of the method: as §1

pinometostat = compound: CC(C)N(C[C@H]1O[C@@H](n2cnc3c(N)ncnc32)[C@H](O)[C@@H]1O)[C@H]1C[C@@H](CCc2nc3cc(C(C)(C)C)ccc3[nH]2)C1 [pinometostat]
Summary of the method: as §1

Measured: log2 fold change

NCOA1 (UniProt Q15788)
inactive: erlotinib 0.018 | [1] 0.114 | [2] 0.062 | [3] 0.071 | [4] 0.077 | [5] 0.081 | [6] -0.065 | [7] -0.044 | [8] -0.018 | [9] -0.05 | ibrutinib 0.062 | [10] -0.174 | ralimetinib -0.114 | [11] -0.088 | [12] -0.085 | [13] 0.133 | [14] 0.034 | [15] 0.124

NDUFA3 (UniProt O95167)
inactive: erlotinib 0.058 | [1] 0.01 | [2] 0.139 | [3] -0.001 | [4] 0.141 | [5] 0.016 | [6] -0.088 | [7] -0.077 | [8] 0.019 | [9] -0.16 | ibrutinib 0.055 | [10] -0.079 | ralimetinib -0.119 | [11] -0.059 | [12] -0.248 | [13] 0.218 | [14] 0.053 | [15] 0.113

NDUFA4 (UniProt O00483)
inactive: erlotinib -0.134 | [1] 0.002 | [2] 0.258 | [3] 0.042 | [4] 0.047 | [5] 0.072 | [6] 0.038 | [7] 0.011 | [8] 0.086 | [9] -0.017 | IRAK-1-4 Inhibitor I 0 | ibrutinib -0.019 | [10] -0.024 | ralimetinib -0.098 | [11] -0.029 | [12] -0.018 | [13] -0.009 | pinometostat -0.013 | [15] 0.126

NDUFA9 (UniProt Q16795)
inactive: erlotinib -0.031 | [1] 0.035 | [2] 0.059 | [3] 0.03 | [4] 0.031 | [5] -0.016 | [6] 0.025 | [7] 0.047 | [8] 0.005 | [9] 0.024 | IRAK-1-4 Inhibitor I 0.003 | ibrutinib -0.036 | [10] -0.037 | ralimetinib -0.011 | [11] -0.211 | [12] -0.101 | [13] 0 | pinometostat -0.006 | [15] 0.086

NDUFB7 (UniProt P17568)
inactive: erlotinib -0.027 | [1] 0.015 | [2] 0.038 | [3] 0.04 | [4] -0.011 | [5] 0.061 | [6] 0.031 | [7] -0.007 | [8] 0.037 | [9] 0.041 | IRAK-1-4 Inhibitor I 0.012 | ibrutinib 0.008 | [10] 0.007 | ralimetinib 0.079 | [11] -0.034 | [12] -0.002 | [13] -0.055 | pinometostat -0.017 | [15] 0.004

NCAPD2 (UniProt Q15021)
inactive: erlotinib 0.029 | [1] 0.107 | [2] 0.005 | [3] -0.05 | [4] 0.024 | [5] 0.04 | [6] 0.013 | [7] 0.022 | [8] -0.001 | [9] -0.103 | IRAK-1-4 Inhibitor I -0.101 | ibrutinib -0.067 | [10] 0.097 | ralimetinib 0.048 | [11] -0.151 | [12] -0.208 | [13] 0.054 | pinometostat 0.039 | [15] -0.036

NDUFA7 (UniProt O95182)
inactive: erlotinib -0.001 | [1] -0.033 | [2] 0.085 | [3] 0.078 | [4] -0.003 | [5] 0.021 | [6] 0 | [7] 0.036 | [8] 0.005 | [9] 0.01 | IRAK-1-4 Inhibitor I 0.169 | ibrutinib 0.024 | [10] -0.014 | ralimetinib -0.017 | [11] -0.192 | [12] -0.063 | [13] 0.158 | pinometostat 0.074 | [15] 0.033

NDEL1 isoform 2 (UniProt Q9GZM8)
inactive: erlotinib 0.021 | [1] 0.066 | [2] 0.041 | [3] 0 | [4] 0.093 | [5] 0.033 | [6] -0.07 | [7] -0.036 | [8] 0.035 | [9] -0.006 | ibrutinib -0.056 | [10] -0.139 | ralimetinib -0.062 | [11] -0.104 | [12] -0.026 | [13] 0.071 | [14] -0.008 | [15] 0.051
